Data reported in patent publication US12516015B2 (AMALIVE LIMITED, priority 2009, dated 2026).
Read-outs that look alike come from different tables or passages of the source.

Columns and labels:
[1] = DVS; for water uptake: 0-90% RH
Method: The sample was then dried by maintaining a 0% humidity environment until no further weight change was recorded.

[2] = 37° C., paddle speed 150 rpm
[3] = for overall stability characterization of the form: conclusion from stability studies
[4] = for Main Peak % Peak Area: HPLC
[5] = 100% oxygen environment; for degradation by NMR and IR: 14 days
[6] = UV radiation
[7] = water slurry
[8] = 3 tons of force for about 90 minutes
[9] = 120° C. ambient pressure, day 14, peak at retention time 6.763-6.766 min
[10] = 120° C. ambient pressure, day 14, peak at retention time 7.569-7.583 min
[11] = 120° C. ambient pressure, day 14

With `NCCC[C@H](N)C(=O)O.O=C(O)Cc1ccccc1` [Form I, L-ornithine phenyl acetate] the hygroscopicity characterization [1] was “non-hygroscopic”, the “stability over range of humidity” value [1] was “stable over a wide range of humidity” and the water uptake [1] was “about 0.2 % by weight”. The “Calculated Intrinsic Dissolution Rates” value ([2]; pH 1.0) was 0.41 mg/cm^2/s, the “Calculated Intrinsic Dissolution Rates” value ([2]; pH 4.5) was 0.44 mg/cm^2/s and the “Calculated Intrinsic Dissolution Rates” value ([2]; pH 6.7) was 0.37 mg/cm^2/s. The phase change ([3]; 40° C./75% RH, 7 days) was “transformation to Form II occurred”, the “overall stability characterization of the form” value [3] was “metastable” and the “Results: chemical degradation” value ([4]; 80° C., no vacuum, 7 days) was “no degradation”. For the same compound, the “Results: physical form” value ([4]; 80° C., no vacuum, 7 days) was “Form II”, the “Results: chemical degradation” value ([4]; 80° C., no vacuum, 14 days) was “no degradation” and the “Results: physical form” value ([4]; 80° C., no vacuum, 14 days) was “Form II”. For the same compound, the “Results: chemical degradation” value ([4]; 80° C., vacuum, 7 days) was “no degradation”, the “Results: physical form” value ([4]; 80° C., vacuum, 7 days) was “Form II” and the “Results: chemical degradation” value ([4]; 80° C., vacuum, 14 days) was “no degradation”. The “Results: physical form” value ([4]; 80° C., vacuum, 14 days) was “Form II”, the “Degradation/Impuirty Peak(s) % Peak Area” value [4, 9] was 3.948% and the “Degradation/Impuirty Peak(s) % Peak Area” value [4, 10] was 42.525%. The “Degradation/Impuirty Peak(s) % Peak Area” value ([4]; 120° C. ambient pressure, day 14, peak at retention time 9.707 min) was 3.628%, the “Results: API remaining” value ([4]; 120° C., no vacuum, 7 days) was > 96 % API and the “Results: physical form” value ([4]; 120° C., no vacuum, 7 days) was “Form II”. For the same compound, the “Results: API remaining” value ([4]; 120° C., no vacuum, 14 days) was 37 % API, the “Results: physical form” value ([4]; 120° C., no vacuum, 14 days) was “Form II” and the “Results: API remaining” value ([4]; 120° C., vacuum, 7 days) was > 99.9 % API. The “Results: physical form” value ([4]; 120° C., vacuum, 7 days) was “Form II”, the “Results: API remaining” value ([4]; 120° C., vacuum, 14 days) was > 96 % API and the “Results: physical form” value ([4]; 120° C., vacuum, 14 days) was “Form II”. The chemical degradation ([4]; 120° C., without a vacuum) was “substantial chemical degradation”, the “Main Peak % Peak Area” value [4, 11] was 37.826% and the “degradation by NMR and IR” value [5] was “no signs of degradation”. The “degradation by NMR and IR” value ([6]; 14 days) was “no degradation”, the physical form conversion ([7]; pH 1.0, 4.0, 7.0, 10.0, 13.2, all samples, 7 or 14 days) was “converted to Form II” and the “degradation by NMR and IR” value ([7]; varied pHs, 14 days) was “did not degrade”. It also gave a density after compression [8] of 1.197 kg/m^3.
For `NCCC[C@H](N)C(=O)O.O=C(O)Cc1ccccc1` [Form II, L-ornithine phenyl acetate], the hygroscopicity characterization [1] was “non-hygroscopic”, the “stability over range of humidity” value [1] was “stable over a wide range of humidity” and the water uptake [1] was “about 0.3 % by weight”. For the same compound, the “Calculated Intrinsic Dissolution Rates” value ([2]; pH 1.0) was 0.26 mg/cm^2/s, the “Calculated Intrinsic Dissolution Rates” value ([2]; pH 4.5) was 0.34 mg/cm^2/s and the “Calculated Intrinsic Dissolution Rates” value ([2]; pH 6.7) was 0.62 mg/cm^2/s. For the same compound, the phase change ([3]; 40° C./75% RH, 7 days) was “failed to produce an observable phase change”, the “overall stability characterization of the form” value [3] was “stable” and the “Results: chemical degradation” value ([4]; 80° C., no vacuum, 7 days) was “no degradation”. The “Results: physical form” value ([4]; 80° C., no vacuum, 7 days) was “Form II”, the “Results: chemical degradation” value ([4]; 80° C., no vacuum, 14 days) was “no degradation” and the “Results: physical form” value ([4]; 80° C., no vacuum, 14 days) was “Form II”. The “Results: chemical degradation” value ([4]; 80° C., vacuum, 7 days) was “no degradation”, the “Results: physical form” value ([4]; 80° C., vacuum, 7 days) was “Form II” and the “Results: chemical degradation” value ([4]; 80° C., vacuum, 14 days) was “no degradation”. For the same compound, the “Results: physical form” value ([4]; 80° C., vacuum, 14 days) was “Form II”, the “Results: API remaining” value ([4]; 120° C., no vacuum, 7 days) was 98.6 % API and the “Results: physical form” value ([4]; 120° C., no vacuum, 7 days) was “Form II”. For the same compound, the “Results: API remaining” value ([4]; 120° C., no vacuum, 14 days) was > 95 % API, the “Results: physical form” value ([4]; 120° C., no vacuum, 14 days) was “Form II” and the “Results: API remaining” value ([4]; 120° C., vacuum, 7 days) was 98.7 % API. The “Results: physical form” value ([4]; 120° C., vacuum, 7 days) was “Form II”, the “Results: API remaining” value ([4]; 120° C., vacuum, 14 days) was > 95 % API and the “Results: physical form” value ([4]; 120° C., vacuum, 14 days) was “Form II”. For the same compound, the “chemical degradation at elevated temperatures” value ([4]; all trials) was “did not chemically degrade”, the “physical stability at elevated temperatures” value ([4]; all trials: 80° or 120° C., with or without vacuum, 7 or 14 days) was “stable” and the “degradation by NMR and IR” value [5] was “no signs of degradation”. The “degradation by NMR and IR” value ([6]; 14 days) was “no degradation”, the “degradation by NMR and IR” value ([7]; varied pHs, 14 days) was “did not degrade” and the density after compression [8] was 1.001 kg/m^3. The “form transition on compression” value [8] was “did not exhibit a transition”.
With `NCCC[C@H](N)C(=O)O.O=C(O)Cc1ccccc1` [Form III, L-ornithine phenyl acetate] the hygroscopicity characterization [1] was “non-hygroscopic”, the “stability over range of humidity” value [1] was “stable over a wide range of humidity” and the water uptake [1] was “about 2.0 % by weight”. The “Calculated Intrinsic Dissolution Rates” value ([2]; pH 1.0) was 0.49 mg/cm^2/s, the “Calculated Intrinsic Dissolution Rates” value ([2]; pH 4.5) was 0.44 mg/cm^2/s and the “Calculated Intrinsic Dissolution Rates” value ([2]; pH 6.7) was 0.45 mg/cm^2/s. For the same compound, the phase change ([3]; 40° C./75% RH, 7 days) was “transformation to Form II occurred”, the “overall stability characterization of the form” value [3] was “most likely metastable” and the “Results: chemical degradation” value ([4]; 80° C., no vacuum, 7 days) was “no degradation”. For the same compound, the “Results: physical form” value ([4]; 80° C., no vacuum, 7 days) was “Form III”, the “Results: chemical degradation” value ([4]; 80° C., no vacuum, 14 days) was “no degradation” and the “Results: physical form” value ([4]; 80° C., no vacuum, 14 days) was “Form III”. The “Degradation/Impuirty Peak(s) % Peak Area” value ([4]; 120° C. ambient pressure, day 7, peak at retention time 6.763 min) was 6.103%, the “Degradation/Impuirty Peak(s) % Peak Area” value ([4]; 120° C. ambient pressure, day 7, peak at retention time 7.582 min) was 45.161% and the “Degradation/Impuirty Peak(s) % Peak Area” value [4, 9] was 5.975%. The “Degradation/Impuirty Peak(s) % Peak Area” value [4, 10] was 56.459%, the “Degradation/Impuirty Peak(s) % Peak Area” value ([4]; 120° C. under vacuum (ca. 600 psi), day 7, peak at retention time 7.598 min) was 9.389% and the “Degradation/Impuirty Peak(s) % Peak Area” value ([4]; 120° C. under vacuum (ca. 600 psi), day 14, peak at retention time 7.555 min) was 11.500%. The “Results: API remaining” value ([4]; 120° C., no vacuum, 7 days) was < 30 % API, the “Results: physical form” value ([4]; 120° C., no vacuum, 7 days) was “Form II” and the “Results: API remaining” value ([4]; 120° C., no vacuum, 14 days) was < 30 % API. The “Results: physical form” value ([4]; 120° C., no vacuum, 14 days) was “Form II”, the chemical degradation ([4]; 120° C., under vacuum) was “greater chemical degradation compared to Forms I and II” and the physical form transition ([4]; 120° C., under vacuum) was “does not transition to Form II”. The “Results: API remaining” value ([4]; 120° C., vacuum, 7 days) was > 95 % API, the “Results: physical form” value ([4]; 120° C., vacuum, 7 days) was “Form III” and the “Results: API remaining” value ([4]; 120° C., vacuum, 14 days) was 88.8 % API. For the same compound, the “Results: physical form” value ([4]; 120° C., vacuum, 14 days) was “Form III”, the chemical degradation ([4]; 120° C., without a vacuum) was “substantial chemical degradation” and the physical form transition ([4]; 120° C., without a vacuum) was “converts to Form II”. For the same compound, the “Main Peak % Peak Area” value ([4]; 120° C. ambient pressure, day 7) was 35.786%, the “Main Peak % Peak Area” value [4, 11] was 30.394% and the “Main Peak % Peak Area” value ([4]; 120° C. under vacuum (ca. 600 psi), day 7) was 88.885%. The “Main Peak % Peak Area” value ([4]; 120° C. under vacuum (ca. 600 psi), day 14) was 87.389%, the “degradation by IR” value ([5]; 7 days) was “no significant degradation” and the “degradation by NMR and IR” value ([6]; 7 days) was “no degradation”. For the same compound, the “physical form conversion by IR” value ([7]; varied pHs, 7-day test) was “converted to Form II”, the “HPLC purity after storage” value ([7]; varied pHs, 7 days) was ≥ 95% and the “degradation by NMR and IR” value ([7]; varied pHs, 7 days) was “no degradation”. For the same compound, the density after compression [8] was 1.078 kg/m^3 and the “form transition on compression” value [8] was “did not exhibit a transition”.
With `NCCC[C@H](N)C(=O)O.O=C(O)Cc1ccccc1` [Form V, L-ornithine phenyl acetate] the hygroscopicity characterization [1] was “non-hygroscopic”, the “stability over range of humidity” value [1] was “not stable over a wide range of humidity” and the water uptake [1] was “about 0.75 % by weight”. The chemical composition ([3]; 40° C./75% RH, 7 days) was “chemical composition was unchanged”, the phase change ([3]; 40° C./75% RH, 7 days) was “transformation to Form II occurred” and the “overall stability characterization of the form” value [3] was “most likely metastable”.
